Experimental data reported in the supplement of paper PMC10849652.
This is one part of the list.

Sequences of proteins named here, by UniProt entry; tags and fusion partners are left off. A change or cut given only in a name is not applied to a line headed by its entry.
UniProt P16403, whole entry, looked up: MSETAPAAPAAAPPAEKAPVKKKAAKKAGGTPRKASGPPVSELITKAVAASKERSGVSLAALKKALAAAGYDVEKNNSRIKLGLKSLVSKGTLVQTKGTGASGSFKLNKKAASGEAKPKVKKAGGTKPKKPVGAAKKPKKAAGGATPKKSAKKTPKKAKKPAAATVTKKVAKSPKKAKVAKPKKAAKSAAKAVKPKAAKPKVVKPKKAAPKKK
UniProt Q13322: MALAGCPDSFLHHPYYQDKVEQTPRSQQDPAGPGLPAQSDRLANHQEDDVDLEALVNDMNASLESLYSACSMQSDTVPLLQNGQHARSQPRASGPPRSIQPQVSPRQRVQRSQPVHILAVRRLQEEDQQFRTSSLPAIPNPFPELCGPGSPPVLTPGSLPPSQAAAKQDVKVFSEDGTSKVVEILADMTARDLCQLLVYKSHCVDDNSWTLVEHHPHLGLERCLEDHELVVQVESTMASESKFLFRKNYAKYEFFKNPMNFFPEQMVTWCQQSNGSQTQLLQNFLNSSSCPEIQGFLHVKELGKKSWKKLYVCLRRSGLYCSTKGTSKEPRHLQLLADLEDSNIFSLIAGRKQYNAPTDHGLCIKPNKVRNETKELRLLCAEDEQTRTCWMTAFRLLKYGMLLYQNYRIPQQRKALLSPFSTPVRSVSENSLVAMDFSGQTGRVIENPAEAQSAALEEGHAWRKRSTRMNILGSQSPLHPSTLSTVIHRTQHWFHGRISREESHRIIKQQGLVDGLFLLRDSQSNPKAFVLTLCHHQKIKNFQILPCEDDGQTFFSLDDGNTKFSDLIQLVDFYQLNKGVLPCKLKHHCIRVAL
UniProt Q03013: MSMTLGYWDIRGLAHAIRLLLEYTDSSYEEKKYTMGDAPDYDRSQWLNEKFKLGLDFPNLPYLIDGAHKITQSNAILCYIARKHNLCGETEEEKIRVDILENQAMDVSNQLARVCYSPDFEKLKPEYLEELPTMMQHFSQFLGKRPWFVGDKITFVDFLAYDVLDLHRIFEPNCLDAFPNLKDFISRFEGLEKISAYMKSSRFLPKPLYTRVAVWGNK
UniProt Q9BXW7: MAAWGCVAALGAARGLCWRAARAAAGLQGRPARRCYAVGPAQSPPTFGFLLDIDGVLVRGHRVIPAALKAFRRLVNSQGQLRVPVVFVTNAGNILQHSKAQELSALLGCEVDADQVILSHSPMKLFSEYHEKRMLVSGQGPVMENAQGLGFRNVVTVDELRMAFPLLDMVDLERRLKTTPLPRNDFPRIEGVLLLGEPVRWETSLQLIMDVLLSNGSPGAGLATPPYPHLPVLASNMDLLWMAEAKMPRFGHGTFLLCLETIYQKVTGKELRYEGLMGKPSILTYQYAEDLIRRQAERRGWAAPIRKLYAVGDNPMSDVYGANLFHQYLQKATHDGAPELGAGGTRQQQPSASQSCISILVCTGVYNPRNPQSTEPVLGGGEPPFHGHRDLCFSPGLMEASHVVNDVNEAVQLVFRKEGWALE
UniProt Q7Z4V5: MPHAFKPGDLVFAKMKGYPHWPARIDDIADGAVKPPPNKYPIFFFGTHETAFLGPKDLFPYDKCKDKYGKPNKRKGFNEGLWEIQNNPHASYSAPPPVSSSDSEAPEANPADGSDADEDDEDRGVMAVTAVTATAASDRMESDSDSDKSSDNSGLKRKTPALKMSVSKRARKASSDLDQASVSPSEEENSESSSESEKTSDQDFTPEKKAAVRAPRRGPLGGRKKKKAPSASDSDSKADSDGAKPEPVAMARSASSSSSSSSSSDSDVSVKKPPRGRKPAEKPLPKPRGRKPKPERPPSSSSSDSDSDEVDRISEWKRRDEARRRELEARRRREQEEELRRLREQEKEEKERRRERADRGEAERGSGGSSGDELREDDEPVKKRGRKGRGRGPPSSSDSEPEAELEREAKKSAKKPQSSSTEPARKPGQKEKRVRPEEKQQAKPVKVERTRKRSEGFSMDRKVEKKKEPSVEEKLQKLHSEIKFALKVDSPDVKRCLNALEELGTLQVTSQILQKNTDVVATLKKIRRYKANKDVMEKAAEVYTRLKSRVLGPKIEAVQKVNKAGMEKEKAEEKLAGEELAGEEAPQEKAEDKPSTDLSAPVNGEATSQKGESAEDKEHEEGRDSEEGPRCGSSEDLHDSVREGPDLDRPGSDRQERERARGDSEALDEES
UniProt Q8WW33: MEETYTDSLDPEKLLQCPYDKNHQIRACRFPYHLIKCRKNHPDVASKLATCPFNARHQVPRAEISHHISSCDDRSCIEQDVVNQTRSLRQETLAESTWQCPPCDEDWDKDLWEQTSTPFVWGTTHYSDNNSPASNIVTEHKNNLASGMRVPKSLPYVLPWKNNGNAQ
UniProt Q9Y5Q9: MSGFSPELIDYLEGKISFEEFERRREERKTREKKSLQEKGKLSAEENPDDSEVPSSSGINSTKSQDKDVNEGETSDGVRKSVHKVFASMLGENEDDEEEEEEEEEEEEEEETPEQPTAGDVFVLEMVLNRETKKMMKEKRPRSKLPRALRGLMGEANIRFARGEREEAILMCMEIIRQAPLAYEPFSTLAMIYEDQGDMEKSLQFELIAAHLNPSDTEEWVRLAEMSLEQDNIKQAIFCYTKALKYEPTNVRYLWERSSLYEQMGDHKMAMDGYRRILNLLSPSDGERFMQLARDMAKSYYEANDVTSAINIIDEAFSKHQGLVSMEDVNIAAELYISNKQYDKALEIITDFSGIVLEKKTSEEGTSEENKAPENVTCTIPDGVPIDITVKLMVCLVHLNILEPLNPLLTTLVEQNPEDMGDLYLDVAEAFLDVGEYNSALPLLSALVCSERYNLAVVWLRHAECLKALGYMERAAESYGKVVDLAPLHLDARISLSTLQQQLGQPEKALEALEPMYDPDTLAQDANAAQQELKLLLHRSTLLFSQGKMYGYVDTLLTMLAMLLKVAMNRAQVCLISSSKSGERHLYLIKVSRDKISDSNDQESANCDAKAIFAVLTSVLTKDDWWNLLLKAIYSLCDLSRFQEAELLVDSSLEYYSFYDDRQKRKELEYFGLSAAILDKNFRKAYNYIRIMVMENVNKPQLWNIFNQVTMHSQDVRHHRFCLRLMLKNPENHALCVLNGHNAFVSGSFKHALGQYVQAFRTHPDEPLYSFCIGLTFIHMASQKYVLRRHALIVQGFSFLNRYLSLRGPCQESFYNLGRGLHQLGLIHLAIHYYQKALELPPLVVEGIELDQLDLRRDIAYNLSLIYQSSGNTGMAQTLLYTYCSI
UniProt O14929: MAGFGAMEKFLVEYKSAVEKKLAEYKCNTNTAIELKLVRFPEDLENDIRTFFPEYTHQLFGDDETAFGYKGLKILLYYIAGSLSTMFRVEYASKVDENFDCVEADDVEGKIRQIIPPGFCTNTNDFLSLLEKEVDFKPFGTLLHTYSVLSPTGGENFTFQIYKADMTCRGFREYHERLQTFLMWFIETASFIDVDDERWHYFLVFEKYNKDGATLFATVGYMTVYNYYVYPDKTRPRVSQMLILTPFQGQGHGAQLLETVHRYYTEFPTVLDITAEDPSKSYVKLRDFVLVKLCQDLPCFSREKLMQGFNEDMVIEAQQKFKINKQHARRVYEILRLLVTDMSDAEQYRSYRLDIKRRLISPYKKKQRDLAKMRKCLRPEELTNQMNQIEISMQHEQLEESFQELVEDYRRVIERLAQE
UniProt Q12849: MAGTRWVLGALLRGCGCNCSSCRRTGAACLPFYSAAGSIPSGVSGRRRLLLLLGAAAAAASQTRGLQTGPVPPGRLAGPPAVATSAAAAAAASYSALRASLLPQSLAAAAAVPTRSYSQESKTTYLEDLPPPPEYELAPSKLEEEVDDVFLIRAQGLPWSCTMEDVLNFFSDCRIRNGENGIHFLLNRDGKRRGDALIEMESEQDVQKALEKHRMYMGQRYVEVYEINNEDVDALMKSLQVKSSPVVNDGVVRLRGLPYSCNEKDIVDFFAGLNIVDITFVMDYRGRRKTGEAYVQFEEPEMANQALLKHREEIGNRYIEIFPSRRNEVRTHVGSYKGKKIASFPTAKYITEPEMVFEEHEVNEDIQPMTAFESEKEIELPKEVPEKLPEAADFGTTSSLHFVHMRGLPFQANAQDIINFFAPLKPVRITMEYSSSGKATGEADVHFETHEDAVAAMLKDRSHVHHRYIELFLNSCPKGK
UniProt P48637: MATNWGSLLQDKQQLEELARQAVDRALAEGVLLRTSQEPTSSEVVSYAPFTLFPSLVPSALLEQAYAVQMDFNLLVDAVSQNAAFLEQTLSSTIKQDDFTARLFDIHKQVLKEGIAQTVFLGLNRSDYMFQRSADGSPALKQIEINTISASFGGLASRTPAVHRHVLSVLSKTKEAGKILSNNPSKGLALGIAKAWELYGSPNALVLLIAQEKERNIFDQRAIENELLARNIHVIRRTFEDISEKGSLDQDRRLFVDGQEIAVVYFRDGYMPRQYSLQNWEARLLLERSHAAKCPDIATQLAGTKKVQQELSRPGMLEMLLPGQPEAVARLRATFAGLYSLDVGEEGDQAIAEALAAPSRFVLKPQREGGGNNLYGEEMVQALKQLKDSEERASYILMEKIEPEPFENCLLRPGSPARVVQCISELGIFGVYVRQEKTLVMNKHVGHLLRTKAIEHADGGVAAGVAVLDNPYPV
UniProt P02042: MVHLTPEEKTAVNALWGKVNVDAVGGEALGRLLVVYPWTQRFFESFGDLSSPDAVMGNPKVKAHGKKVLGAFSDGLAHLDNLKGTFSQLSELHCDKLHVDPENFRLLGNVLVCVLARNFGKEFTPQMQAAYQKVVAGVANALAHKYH
UniProt P56524: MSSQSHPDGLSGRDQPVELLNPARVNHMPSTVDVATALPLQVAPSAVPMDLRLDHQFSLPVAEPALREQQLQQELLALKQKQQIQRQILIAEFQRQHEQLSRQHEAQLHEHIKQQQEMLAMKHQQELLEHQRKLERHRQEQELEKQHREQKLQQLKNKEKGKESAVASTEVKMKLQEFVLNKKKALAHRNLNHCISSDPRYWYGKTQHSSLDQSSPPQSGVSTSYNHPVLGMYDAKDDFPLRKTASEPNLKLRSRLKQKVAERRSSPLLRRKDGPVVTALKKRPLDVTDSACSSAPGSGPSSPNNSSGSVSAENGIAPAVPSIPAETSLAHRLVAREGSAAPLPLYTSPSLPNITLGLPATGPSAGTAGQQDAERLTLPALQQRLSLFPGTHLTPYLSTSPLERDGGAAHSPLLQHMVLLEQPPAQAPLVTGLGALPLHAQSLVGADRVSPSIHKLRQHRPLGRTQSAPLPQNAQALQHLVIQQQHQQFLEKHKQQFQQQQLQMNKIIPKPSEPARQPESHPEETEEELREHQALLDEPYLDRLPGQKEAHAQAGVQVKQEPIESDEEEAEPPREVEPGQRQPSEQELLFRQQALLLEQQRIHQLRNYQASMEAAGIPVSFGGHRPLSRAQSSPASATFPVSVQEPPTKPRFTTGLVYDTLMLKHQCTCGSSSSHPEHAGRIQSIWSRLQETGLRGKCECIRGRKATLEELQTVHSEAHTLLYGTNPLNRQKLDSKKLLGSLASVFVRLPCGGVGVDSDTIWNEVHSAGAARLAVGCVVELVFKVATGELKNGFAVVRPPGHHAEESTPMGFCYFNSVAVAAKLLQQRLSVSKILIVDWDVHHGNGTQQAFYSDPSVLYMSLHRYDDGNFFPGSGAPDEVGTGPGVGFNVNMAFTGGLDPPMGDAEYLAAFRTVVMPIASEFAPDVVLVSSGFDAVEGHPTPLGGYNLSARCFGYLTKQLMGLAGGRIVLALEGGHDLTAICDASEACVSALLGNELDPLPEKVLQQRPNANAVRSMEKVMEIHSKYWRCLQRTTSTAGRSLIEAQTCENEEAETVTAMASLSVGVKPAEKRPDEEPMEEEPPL
UniProt Q92664: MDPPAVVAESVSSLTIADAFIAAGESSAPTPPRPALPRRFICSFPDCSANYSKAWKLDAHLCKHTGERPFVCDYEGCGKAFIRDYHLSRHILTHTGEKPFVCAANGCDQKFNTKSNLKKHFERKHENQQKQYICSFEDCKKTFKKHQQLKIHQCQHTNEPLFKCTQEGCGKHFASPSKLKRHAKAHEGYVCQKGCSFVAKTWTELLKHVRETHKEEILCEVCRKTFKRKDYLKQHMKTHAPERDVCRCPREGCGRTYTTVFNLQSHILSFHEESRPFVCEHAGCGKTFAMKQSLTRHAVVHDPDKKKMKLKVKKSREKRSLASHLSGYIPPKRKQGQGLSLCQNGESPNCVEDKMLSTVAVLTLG
UniProt Q9UBQ7: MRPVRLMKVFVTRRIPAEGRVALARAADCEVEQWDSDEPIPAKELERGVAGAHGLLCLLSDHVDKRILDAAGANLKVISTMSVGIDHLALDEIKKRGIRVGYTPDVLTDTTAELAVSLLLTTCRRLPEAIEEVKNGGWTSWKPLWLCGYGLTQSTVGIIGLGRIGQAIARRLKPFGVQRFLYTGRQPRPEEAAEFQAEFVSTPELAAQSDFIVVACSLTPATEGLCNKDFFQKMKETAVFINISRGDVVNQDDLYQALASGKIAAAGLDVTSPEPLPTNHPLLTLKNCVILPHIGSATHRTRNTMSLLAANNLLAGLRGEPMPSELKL

What follows are targets tested with CC1=C(C(CC(=O)N1)C2=CC=C(C=C2)C(F)(F)F)C(=O)NC3=C(C=C4C(=C3)C=NN4)F (assay: log2 fold change, soluble protein after heating vs DMSO (PISA); higher = thermal stabilisation; K562 lysate, 10 uM; active = over 0.2 and 3.5 SD of the protein, either way, in both replicates (recomputed)).
In short: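 Quantification was by TMTpro 16plex LC-MS/MS with equalised channel sums, applied to the supernatant after 21,000xg for 90 min. Samples were crude K562 extract at 1 mg/mL protein in PBS pH 7.4 with 1 mM MgCl2, treated with 10 μM compound for 30 min, heated for 3 min across 48°C-58°C, pooled and brought to 0.5% NP-40 at 4°C. Values are log-two fold changes in thermal stability relative to solvent controls, from duplicates.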

**Q.** How did the log2 fold change turn out when GTPBP2 (UniProt Q9BX10) was run?
**A.** The log2 fold change was inactive: 0.004.

**Q.** With HDAC7 isoform 5 (UniProt Q8WUI4) as the target, how does the log2 fold change read?
**A.** The log2 fold change was inactive: 0.042.

**Q.** With H1-2 (UniProt P16403) as the target, how does the log2 fold change read?
**A.** Its log2 fold change is inactive: -0.026.

**Q.** For GRB10 (UniProt Q13322), which log2 fold change is on record?
**A.** The log2 fold change was inactive: 0.04.

**Q.** GSTM4 (UniProt Q03013) was tested. Which log2 fold change did it give?
**A.** The log2 fold change was inactive: 0.096.

**Q.** How did the log2 fold change turn out when HDHD5 (UniProt Q9BXW7) was run?
**A.** The log2 fold change was inactive: 0.011.

**Q.** For HAUS7 isoform 2 (UniProt Q99871), which log2 fold change is on record?
**A.** The log2 fold change was inactive: -0.003.

**Q.** How did the log2 fold change turn out when HDGFL2 isoform 2 (UniProt Q7Z4V5) was run?
**A.** Its log2 fold change is inactive: -0.015.

**Q.** For GSTM2 (UniProt P28161), which log2 fold change is on record?
**A.** The log2 fold change was inactive: -0.119.

**Q.** For GTSF1 (UniProt Q8WW33), which log2 fold change is on record?
**A.** Its log2 fold change is inactive: -0.002.

**Q.** With H1FX (UniProt Q92522) as the target, how does the log2 fold change read?
**A.** Its log2 fold change is inactive: -0.014.

**Q.** With GUF1 (UniProt Q8N442) as the target, how does the log2 fold change read?
**A.** The log2 fold change was inactive: 0.072.

**Q.** How did the log2 fold change turn out when GTF3C6 (UniProt Q969F1) was run?
**A.** Its log2 fold change is inactive: 0.02.

**Q.** GTF3C3 (UniProt Q9Y5Q9) was tested. Which log2 fold change did it give?
**A.** The log2 fold change was inactive: -0.003.

**Q.** GSTM3 (UniProt P21266) was tested. Which log2 fold change did it give?
**A.** Its log2 fold change is inactive: 0.027.

**Q.** With HAT1 (UniProt O14929) as the target, how does the log2 fold change read?
**A.** The log2 fold change was inactive: 0.007.

**Q.** Which log2 fold change does the source give for GRSF1 (UniProt Q12849) here?
**A.** Its log2 fold change is inactive: -0.02.

**Q.** For GSS (UniProt P48637), which log2 fold change is on record?
**A.** Its log2 fold change is inactive: 0.017.

**Q.** For HBD (UniProt P02042), which log2 fold change is on record?
**A.** Its log2 fold change is inactive: 0.025.

**Q.** HDAC4 (UniProt P56524) was tested. Which log2 fold change did it give?
**A.** The log2 fold change was inactive: 0.054.

**Q.** Which log2 fold change does the source give for GTF3A (UniProt Q92664) here?
**A.** Its log2 fold change is inactive: -0.023.

**Q.** For GTPBP4 (UniProt Q9BZE4), which log2 fold change is on record?
**A.** Its log2 fold change is inactive: 0.006.

**Q.** GRHPR (UniProt Q9UBQ7) was tested. Which log2 fold change did it give?
**A.** The log2 fold change was inactive: -0.005.
